The source of these data is the supplement of paper PMC10849652.

By UniProt entry, the sequences of proteins in these tests, tags left out. Where a name states a change or a piece, a line headed by the entry shows the natural chain unless it says otherwise.
UniProt Q93083: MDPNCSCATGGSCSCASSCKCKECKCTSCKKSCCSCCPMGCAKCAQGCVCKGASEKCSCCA
UniProt Q2M296: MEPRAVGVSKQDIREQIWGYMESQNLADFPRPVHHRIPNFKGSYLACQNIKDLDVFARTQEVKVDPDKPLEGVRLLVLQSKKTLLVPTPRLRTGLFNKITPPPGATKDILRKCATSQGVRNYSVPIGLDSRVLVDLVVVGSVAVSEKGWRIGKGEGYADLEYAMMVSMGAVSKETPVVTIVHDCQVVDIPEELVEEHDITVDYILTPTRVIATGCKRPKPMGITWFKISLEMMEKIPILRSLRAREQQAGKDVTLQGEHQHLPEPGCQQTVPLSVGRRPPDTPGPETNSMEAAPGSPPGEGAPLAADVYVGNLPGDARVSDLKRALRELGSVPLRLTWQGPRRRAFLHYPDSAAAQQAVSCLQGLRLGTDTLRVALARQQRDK
MTHFD1, A0A384N5Y3, UniProt A0A384N5Y3, whole entry, looked up: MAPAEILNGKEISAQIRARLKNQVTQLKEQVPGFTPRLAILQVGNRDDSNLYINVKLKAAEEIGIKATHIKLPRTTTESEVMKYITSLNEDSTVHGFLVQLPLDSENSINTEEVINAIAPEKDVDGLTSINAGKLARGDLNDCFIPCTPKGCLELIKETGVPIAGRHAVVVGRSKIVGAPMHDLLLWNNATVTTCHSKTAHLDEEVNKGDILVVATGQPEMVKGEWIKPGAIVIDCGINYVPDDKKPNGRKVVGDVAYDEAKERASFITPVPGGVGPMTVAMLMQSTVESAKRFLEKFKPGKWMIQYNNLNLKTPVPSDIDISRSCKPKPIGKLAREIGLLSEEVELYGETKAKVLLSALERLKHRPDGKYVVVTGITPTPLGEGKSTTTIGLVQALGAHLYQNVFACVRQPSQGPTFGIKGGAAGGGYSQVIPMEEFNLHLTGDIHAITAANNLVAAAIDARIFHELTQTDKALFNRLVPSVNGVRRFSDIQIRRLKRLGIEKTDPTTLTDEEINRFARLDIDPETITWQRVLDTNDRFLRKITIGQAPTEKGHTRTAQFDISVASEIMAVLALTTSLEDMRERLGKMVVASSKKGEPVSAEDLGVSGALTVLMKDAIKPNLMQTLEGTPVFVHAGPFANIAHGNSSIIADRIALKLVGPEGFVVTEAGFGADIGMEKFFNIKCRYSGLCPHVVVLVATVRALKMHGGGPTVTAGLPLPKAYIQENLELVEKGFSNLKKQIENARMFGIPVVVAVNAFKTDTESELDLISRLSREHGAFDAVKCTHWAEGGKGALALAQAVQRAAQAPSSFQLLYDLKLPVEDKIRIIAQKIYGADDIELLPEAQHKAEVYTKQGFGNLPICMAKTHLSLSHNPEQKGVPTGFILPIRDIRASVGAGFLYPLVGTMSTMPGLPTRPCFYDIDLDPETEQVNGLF
UniProt Q99836, whole entry, looked up: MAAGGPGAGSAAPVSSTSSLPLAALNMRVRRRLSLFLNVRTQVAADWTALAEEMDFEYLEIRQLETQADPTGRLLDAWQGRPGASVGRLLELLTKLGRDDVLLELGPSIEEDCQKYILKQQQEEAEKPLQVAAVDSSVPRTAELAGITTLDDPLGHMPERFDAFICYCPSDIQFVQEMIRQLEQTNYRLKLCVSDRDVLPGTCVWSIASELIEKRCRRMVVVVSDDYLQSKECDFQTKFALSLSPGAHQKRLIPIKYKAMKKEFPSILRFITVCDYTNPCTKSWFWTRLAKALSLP
UniProt P03923, whole entry, looked up: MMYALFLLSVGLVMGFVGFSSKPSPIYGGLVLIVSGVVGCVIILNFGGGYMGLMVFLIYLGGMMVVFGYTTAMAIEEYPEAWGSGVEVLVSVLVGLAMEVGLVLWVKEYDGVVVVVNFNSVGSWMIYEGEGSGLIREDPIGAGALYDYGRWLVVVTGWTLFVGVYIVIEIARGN
UniProt P00414, whole entry, looked up: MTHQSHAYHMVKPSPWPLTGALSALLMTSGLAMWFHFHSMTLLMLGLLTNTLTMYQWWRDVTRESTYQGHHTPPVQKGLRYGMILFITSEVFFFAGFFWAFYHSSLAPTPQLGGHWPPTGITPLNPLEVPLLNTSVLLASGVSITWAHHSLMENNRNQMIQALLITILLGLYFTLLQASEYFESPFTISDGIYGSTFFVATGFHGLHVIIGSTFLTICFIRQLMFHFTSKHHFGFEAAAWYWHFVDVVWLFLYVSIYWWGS
UniProt G3V1V0: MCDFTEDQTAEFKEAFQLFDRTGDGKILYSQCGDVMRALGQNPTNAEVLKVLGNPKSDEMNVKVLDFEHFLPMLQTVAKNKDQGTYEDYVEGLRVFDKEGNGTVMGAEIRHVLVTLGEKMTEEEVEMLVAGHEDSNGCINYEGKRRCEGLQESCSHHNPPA
UniProt O43312: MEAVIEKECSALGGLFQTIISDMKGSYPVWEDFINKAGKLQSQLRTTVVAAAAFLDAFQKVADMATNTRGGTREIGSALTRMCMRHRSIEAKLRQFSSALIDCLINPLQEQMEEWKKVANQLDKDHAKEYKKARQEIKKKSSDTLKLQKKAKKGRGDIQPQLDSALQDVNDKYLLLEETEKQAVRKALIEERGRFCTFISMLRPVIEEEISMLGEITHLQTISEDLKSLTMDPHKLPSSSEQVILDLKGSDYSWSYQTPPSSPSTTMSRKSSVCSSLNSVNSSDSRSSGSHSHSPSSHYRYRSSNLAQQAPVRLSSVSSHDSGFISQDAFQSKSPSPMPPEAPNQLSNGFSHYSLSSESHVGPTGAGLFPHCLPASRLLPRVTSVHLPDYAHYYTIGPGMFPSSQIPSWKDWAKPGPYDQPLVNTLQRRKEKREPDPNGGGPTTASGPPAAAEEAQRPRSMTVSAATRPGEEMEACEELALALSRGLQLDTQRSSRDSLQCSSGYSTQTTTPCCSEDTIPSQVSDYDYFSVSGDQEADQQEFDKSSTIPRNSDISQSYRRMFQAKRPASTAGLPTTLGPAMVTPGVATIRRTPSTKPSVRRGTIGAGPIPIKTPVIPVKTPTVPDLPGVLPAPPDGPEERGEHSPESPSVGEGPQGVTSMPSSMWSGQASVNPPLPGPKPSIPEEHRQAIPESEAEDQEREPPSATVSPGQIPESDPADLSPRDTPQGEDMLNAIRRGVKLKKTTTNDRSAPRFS
UniProt O75570: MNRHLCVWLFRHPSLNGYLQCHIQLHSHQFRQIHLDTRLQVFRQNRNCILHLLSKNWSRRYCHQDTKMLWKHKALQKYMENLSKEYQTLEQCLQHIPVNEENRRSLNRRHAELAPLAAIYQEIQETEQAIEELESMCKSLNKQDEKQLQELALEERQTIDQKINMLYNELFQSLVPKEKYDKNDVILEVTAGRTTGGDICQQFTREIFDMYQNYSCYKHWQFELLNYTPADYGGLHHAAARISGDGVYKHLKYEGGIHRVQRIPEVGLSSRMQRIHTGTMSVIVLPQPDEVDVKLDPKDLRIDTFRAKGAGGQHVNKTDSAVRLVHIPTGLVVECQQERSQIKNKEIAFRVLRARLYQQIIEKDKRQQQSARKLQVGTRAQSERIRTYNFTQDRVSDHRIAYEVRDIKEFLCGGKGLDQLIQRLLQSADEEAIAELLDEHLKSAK
UniProt P03891, whole entry, looked up: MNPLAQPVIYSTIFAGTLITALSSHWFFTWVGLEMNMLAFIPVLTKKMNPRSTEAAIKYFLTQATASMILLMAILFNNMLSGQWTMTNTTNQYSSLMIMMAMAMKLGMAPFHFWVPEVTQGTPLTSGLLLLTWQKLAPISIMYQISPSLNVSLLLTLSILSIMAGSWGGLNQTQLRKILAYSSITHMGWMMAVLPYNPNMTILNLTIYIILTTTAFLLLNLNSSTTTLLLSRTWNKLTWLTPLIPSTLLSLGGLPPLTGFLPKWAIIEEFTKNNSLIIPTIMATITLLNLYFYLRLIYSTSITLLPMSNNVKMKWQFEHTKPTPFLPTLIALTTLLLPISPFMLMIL
UniProt P13640: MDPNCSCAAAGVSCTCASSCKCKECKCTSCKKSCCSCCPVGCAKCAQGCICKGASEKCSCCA
UniProt Q9H6N6: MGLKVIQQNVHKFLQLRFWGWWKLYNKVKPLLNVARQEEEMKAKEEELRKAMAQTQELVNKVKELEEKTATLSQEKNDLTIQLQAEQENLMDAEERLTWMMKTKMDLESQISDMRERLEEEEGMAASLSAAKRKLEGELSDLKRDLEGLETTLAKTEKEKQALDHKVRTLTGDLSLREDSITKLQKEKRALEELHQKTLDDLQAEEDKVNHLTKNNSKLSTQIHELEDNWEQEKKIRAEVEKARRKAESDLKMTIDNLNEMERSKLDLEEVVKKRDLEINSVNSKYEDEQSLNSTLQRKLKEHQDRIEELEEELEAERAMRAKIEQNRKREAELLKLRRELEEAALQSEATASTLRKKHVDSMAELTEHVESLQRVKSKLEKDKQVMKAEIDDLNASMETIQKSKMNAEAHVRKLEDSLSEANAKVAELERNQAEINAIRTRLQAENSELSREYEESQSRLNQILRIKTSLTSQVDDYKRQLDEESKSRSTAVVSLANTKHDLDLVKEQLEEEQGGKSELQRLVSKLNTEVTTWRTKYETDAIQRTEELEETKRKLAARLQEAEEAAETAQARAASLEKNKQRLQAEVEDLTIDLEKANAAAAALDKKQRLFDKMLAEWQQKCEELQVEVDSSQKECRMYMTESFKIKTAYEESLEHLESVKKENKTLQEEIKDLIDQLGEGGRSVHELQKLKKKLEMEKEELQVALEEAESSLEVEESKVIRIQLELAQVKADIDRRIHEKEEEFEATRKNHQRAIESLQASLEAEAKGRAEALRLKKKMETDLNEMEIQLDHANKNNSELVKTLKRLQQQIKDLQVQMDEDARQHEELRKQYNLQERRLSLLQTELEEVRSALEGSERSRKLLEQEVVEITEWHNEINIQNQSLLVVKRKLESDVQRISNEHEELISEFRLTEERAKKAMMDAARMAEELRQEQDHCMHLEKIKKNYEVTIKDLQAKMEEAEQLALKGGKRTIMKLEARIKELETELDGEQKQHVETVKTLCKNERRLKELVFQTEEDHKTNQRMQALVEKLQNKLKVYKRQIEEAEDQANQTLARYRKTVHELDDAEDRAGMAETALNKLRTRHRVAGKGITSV

The other results are listed elsewhere or left out.

Compound in this experiment: C/C(=N\NC(=O)C1=CC(=CC=C1)S(=O)(=O)N2CCOCC2)/C3=C(C=CC(=C3)Cl)O
Description: log2 fold change, soluble protein after heating vs DMSO (PISA); higher = thermal stabilisation; K562 cells, 10 uM, 30 min; active = over 0.2 and 3.5 SD of the protein, either way, in both replicates (recomputed). An outline of the steps:
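Values are thermal stability changes relative to control samples and are taken from duplicates. They are stated as log2 fold changes. Before quantification by TMTpro 16plex LC-MS/MS with equalised channel sums, K562 cells at 2×10^6 cells/mL were treated with 10 μM compound for 30 min, heated in aliquots for 3 min across 48°C-58°C, pooled, extracted in PBS with 0.5% NP-40 at 4°C, and centrifuged at 21,000xg for 90 min to give the soluble supernatant.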
With MT1L (UniProt Q93083), the log2 fold change was inactive: -0.244.
As for MTHFSD isoform 3 (UniProt Q2M296), the figure is inactive: -0.091; as for MTHFSD (UniProt Q2M296), inactive: -0.061.
With MTHFD1, A0A384N5Y3, the log2 fold change was inactive: 0.056.
As for MYD88 isoform 6 (UniProt Q99836), the figure is inactive: 0.204; as for MT-CO1 (UniProt P00395), inactive: -0.076.
Regarding MT-ND6 (UniProt P03923), the log2 fold change is inactive: -0.039.
In the case of MT-CO3 (UniProt P00414) it was inactive: 0.204; in that of MTMR1 (UniProt Q13613), inactive: 0.088.
Regarding MYL6 (UniProt G3V1V0), the log2 fold change is inactive: -0.003.
In the case of MTHFD1L (UniProt B7ZM99) it was inactive: 0.044.
In the case of MTSS1 isoform 5 (UniProt O43312) it was inactive: 0.057; in that of MTRF1 (UniProt O75570), inactive: 0.18.
For MT-ND2 (UniProt P03891), the log2 fold change is inactive: -0.063.
As for MRPS14 (UniProt O60783), the figure is inactive: 0.012; as for MT1G (UniProt P13640), inactive: -0.076.
As for MYH16 (UniProt Q9H6N6), the figure is inactive: 0.102.
